Reference: the supplement of paper PMC10849652
This is one part of the list.

Chains of the proteins cited; added tags and fusions are not shown. Lines headed by an entry give the natural chain unless they say otherwise; changes in a name come on top.
UniProt Q9NRH2: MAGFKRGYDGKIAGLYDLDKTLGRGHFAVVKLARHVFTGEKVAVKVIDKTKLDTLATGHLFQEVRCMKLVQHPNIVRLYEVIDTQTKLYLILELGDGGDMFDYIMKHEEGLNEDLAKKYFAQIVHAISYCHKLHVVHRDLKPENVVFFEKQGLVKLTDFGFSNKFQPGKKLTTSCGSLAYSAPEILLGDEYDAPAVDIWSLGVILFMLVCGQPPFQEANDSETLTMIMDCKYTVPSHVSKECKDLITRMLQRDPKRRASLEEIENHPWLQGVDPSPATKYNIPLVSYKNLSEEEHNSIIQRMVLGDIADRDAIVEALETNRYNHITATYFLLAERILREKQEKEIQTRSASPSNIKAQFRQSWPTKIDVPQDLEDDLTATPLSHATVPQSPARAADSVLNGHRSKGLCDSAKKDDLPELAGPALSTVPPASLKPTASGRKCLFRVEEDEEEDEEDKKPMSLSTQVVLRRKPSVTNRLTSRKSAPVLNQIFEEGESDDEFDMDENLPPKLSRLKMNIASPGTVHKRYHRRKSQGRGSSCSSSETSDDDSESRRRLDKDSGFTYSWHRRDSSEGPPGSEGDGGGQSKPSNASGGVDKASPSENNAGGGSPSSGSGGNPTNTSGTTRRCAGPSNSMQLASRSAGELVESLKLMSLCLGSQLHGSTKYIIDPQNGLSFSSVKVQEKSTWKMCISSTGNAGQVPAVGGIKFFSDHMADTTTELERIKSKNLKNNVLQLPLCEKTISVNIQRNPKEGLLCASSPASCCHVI
UniProt O60749: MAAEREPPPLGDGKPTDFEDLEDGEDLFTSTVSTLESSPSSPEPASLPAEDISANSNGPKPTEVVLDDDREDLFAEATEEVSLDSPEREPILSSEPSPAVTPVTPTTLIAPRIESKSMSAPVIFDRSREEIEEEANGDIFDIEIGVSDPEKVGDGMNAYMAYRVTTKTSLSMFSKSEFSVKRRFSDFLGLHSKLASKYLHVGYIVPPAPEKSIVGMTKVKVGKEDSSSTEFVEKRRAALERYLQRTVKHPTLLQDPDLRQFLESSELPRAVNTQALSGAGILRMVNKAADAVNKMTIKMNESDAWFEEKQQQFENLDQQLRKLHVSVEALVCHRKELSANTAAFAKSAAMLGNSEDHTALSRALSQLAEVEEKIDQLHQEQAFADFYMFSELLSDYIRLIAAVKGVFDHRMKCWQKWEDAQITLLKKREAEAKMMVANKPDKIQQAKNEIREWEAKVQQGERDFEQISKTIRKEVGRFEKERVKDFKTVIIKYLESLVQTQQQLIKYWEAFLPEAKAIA
UniProt Q92925, whole entry, looked up: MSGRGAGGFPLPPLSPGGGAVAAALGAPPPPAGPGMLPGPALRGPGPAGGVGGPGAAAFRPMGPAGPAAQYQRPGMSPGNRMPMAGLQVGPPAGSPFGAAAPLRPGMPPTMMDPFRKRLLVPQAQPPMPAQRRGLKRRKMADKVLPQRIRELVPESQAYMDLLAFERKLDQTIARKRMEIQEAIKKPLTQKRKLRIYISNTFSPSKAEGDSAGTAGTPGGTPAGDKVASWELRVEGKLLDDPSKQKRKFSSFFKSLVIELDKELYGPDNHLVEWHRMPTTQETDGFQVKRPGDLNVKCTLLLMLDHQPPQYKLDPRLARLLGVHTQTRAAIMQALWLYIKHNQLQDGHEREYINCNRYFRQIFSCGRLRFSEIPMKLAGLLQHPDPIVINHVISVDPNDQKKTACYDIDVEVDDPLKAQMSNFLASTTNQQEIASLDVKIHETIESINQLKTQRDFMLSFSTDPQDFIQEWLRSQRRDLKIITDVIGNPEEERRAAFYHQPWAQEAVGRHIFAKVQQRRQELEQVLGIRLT
UniProt Q96E16: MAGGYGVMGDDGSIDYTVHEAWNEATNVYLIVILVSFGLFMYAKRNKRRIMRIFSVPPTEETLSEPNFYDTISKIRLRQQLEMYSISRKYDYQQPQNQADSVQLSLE
UniProt P57768: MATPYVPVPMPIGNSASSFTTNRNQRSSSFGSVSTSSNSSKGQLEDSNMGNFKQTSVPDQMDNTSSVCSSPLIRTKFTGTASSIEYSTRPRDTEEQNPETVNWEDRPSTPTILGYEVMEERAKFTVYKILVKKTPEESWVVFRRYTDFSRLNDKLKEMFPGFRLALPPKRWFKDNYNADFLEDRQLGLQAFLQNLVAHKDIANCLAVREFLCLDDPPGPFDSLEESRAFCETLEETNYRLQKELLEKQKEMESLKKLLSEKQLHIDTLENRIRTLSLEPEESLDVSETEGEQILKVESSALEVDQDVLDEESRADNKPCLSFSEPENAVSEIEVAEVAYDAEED
UniProt Q02086: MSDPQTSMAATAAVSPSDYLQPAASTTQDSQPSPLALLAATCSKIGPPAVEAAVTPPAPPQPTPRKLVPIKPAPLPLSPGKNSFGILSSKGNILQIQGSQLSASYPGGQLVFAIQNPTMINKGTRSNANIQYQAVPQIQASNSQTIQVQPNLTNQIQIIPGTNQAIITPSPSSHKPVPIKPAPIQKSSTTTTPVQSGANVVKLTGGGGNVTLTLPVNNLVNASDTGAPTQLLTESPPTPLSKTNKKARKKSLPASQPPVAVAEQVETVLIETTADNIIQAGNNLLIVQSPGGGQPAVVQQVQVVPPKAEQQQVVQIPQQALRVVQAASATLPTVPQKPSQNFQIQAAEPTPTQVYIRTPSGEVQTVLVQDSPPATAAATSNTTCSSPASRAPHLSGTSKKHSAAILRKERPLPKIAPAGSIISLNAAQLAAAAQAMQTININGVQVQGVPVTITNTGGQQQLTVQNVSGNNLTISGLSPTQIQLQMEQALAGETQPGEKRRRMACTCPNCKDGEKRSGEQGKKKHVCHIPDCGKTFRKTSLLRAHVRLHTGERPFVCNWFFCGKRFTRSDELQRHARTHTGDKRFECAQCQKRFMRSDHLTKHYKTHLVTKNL
UniProt Q92543: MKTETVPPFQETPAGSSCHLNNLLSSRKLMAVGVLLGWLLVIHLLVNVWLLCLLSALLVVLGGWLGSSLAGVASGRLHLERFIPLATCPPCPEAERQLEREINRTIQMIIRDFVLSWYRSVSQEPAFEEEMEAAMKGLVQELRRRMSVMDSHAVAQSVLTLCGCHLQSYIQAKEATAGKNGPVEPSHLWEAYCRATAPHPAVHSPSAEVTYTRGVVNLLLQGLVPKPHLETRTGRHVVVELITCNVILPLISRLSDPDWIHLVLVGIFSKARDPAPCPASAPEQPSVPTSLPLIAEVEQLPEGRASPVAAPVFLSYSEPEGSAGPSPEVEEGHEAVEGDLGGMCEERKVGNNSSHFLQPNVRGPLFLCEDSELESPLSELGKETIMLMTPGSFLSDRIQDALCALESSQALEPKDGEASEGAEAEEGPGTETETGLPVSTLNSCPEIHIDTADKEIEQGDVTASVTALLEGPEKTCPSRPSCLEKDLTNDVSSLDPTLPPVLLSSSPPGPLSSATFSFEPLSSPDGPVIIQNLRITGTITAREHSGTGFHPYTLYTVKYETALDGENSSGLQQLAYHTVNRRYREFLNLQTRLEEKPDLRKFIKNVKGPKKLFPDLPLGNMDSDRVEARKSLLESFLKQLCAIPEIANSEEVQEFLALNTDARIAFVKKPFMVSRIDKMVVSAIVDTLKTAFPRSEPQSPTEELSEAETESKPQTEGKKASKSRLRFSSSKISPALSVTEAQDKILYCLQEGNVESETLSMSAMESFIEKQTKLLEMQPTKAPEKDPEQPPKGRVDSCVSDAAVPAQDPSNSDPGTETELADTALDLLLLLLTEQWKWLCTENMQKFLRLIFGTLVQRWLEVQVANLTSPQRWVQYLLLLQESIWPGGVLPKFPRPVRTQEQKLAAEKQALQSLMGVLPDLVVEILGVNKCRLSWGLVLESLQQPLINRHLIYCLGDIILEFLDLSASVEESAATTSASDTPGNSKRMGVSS
UniProt Q92581: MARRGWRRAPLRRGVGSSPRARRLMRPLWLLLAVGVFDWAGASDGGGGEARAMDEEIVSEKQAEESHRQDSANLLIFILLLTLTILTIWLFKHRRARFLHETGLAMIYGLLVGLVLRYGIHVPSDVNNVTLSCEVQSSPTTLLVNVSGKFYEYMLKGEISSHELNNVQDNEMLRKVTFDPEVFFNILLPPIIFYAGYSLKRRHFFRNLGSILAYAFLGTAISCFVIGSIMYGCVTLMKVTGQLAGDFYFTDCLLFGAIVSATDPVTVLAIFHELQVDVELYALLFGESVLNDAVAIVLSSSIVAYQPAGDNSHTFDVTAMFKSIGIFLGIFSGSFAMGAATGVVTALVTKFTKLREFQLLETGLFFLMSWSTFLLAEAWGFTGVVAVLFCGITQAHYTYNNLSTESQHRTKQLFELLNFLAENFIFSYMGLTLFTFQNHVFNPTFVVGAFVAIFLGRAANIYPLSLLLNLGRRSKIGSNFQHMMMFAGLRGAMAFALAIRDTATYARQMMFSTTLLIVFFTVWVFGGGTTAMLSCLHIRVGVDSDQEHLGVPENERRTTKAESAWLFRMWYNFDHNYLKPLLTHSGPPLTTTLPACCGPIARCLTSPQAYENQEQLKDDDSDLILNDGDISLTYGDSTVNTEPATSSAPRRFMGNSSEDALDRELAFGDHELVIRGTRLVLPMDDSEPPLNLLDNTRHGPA
UniProt P0DJ93: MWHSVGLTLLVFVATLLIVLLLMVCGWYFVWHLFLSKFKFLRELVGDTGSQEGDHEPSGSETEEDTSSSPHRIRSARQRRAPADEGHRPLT
UniProt O00161: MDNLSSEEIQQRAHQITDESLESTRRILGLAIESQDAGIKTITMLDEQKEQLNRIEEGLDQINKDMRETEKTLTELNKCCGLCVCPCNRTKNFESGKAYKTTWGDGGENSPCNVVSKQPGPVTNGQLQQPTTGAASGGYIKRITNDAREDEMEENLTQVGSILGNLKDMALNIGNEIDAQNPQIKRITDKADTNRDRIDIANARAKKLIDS
UniProt P51531, whole entry, looked up: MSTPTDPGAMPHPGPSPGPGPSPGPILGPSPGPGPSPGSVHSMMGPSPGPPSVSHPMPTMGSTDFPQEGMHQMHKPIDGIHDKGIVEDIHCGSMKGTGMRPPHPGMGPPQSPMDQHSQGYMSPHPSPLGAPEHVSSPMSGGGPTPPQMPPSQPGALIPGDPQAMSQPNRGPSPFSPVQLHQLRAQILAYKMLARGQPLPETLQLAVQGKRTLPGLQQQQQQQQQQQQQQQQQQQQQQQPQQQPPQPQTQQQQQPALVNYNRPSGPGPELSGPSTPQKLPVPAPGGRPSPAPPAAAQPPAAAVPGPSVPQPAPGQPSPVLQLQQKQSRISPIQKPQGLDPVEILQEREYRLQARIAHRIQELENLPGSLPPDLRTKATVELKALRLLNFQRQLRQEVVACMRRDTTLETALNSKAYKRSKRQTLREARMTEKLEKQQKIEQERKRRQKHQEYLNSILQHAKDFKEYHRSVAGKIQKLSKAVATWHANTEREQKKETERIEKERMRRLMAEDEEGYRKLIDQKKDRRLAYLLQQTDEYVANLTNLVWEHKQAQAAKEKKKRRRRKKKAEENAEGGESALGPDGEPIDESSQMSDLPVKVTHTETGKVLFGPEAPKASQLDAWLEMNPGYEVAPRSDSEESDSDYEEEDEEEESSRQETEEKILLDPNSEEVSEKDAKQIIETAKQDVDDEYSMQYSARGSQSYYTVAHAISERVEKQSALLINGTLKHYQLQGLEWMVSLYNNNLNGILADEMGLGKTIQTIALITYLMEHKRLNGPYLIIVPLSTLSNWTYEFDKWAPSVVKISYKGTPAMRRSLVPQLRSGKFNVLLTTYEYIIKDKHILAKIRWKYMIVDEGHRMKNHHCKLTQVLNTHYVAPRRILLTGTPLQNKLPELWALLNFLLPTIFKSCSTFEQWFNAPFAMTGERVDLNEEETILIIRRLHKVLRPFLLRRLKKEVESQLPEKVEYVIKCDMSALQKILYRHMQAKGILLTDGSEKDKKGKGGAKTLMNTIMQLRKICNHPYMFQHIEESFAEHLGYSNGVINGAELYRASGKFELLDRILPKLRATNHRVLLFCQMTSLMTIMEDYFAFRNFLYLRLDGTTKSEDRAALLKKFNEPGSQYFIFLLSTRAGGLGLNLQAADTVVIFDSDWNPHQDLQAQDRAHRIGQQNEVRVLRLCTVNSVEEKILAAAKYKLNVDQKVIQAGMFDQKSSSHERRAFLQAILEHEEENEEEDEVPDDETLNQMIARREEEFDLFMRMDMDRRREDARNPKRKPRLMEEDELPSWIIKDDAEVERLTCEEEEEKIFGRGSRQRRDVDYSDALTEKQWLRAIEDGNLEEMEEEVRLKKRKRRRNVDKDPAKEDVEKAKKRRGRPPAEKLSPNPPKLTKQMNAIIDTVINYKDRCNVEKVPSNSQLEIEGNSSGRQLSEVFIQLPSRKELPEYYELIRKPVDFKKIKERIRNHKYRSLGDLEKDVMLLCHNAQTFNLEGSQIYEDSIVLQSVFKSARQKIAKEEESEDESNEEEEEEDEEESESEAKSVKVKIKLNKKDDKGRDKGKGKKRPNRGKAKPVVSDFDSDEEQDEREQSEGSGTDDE
UniProt Q8WVI0: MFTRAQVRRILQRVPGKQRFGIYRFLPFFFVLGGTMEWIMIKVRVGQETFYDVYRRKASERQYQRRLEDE

What follows are targets tested with c1cc(OCCN2CCCCC2)cc(-c2n[nH]c3ccc(-c4nnc[nH]4)cc23)c1 (assay: log2 fold change, soluble protein after heating vs DMSO (PISA); higher = thermal stabilisation; K562 cells, 10 uM, 30 min; active = over 0.2 and 3.5 SD of the protein, either way, in both replicates (recomputed)).
Method in brief: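 For each measurement, 10 μM compound was applied for 30 min to K562 cells at 2×10^6 cells/mL. Aliquots were heated for 3 min across 48°C-58°C, pooled, and extracted in PBS with 0.5% NP-40 at 4°C; the supernatant after 21,000xg for 90 min was soluble protein. This was quantified by TMTpro 16plex LC-MS/MS with channel sums equalised, and thermal stability was reported relative to control samples from duplicates, on a log2 fold-change scale.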

log2 fold change, inactive:
SNRK (UniProt Q9NRH2) 0.325
SMARCB1 (UniProt Q12824) -0.103
SNX2 isoform 2 (UniProt O60749) -0.1
SMG7 isoform 4 (UniProt Q92540) -0.058
SMARCD2 (UniProt Q92925) -0.145
SMIM19 (UniProt Q96E16) 0.182
SNRPD2 (UniProt K7EJB5) 0.026
SNRPN isoform 2 (UniProt P63162) 0.103
SNX27 (UniProt Q96L92) -0.037
SNX16 (UniProt P57768) -0.086
SMUG1 (UniProt Q53HV7) -0.143
SP2 (UniProt Q02086) -0.293
SP4 (UniProt Q02446) -0.005
SMU1 isoform 2 (UniProt Q2TAY7) 0.205
SNX19 (UniProt Q92543) -0.073
SLC9A6 isoform 3 (UniProt Q92581) 0.172
SMIM13 (UniProt P0DJ93) 0.039
SNAP23 isoform 2 (UniProt O00161) -0.097
SMARCA2 (UniProt P51531) 0.008
SMIM4 (UniProt Q8WVI0) -0.17

Nothing new here: an excerpt of the list.
log2 fold change, inactive:
SMU1 isoform 2 (UniProt Q2TAY7) 0.205
SNX19 (UniProt Q92543) -0.073
